The list shows only some results of the screen, not a fair sample: it gathers tests that were run many times, whatever their T/C, doses with no T/C, and many T/C values between a quarter and a half above the control. Further doses and runs are listed elsewhere. T/C: endpoint of the treated group in % of that of the vehicle group. Some doses have a count of surviving animals in place of a T/C: the source holds a T/C of zero for them, seemingly a mark for toxic or unscored doses. Some survivor counts are full or nearly so, which does not show that the dose was tolerated: survival well below the control is almost never listed, so the zero probably covers shortened survival too. Counts of survivors are from the toxicity check (mostly the fifth day) where no day follows; animals may have died later. Schedule codes are those of the source, taken here to give the interval after Q, in days (D) or hours (H), and the number of doses after X. Some schedules carry Z or #; the key to these is not given. Some molecules as drawn cover several salts, stereoisomers or complexes of the source; a dose is that of the sample tested. Additions like (4×) give the number of equal values in this list. For survival time, this PubChem deposit counts one and a half times the control or more as active, and values a quarter to a half above the control carry no call in these data; other NCI protocols may use other cut-offs.
Tested on: L1210 leukemia ip in BDF1 mice, survival T/C
Assay: NCI In Vivo Anticancer Drug Screen. Data for tumor model L1210 Leukemia (intraperitoneal) in B6D2F1 (BDF1) mice
Conditions: T/C endpoint: mean survival time, higher T/C = longer survival
[1] = dose: 400.0 mg/kg/injection, schedule: Q01DX001 (ip), vehicle: other
[2] = dose: 400.0 mg/kg/injection, schedule: Q01DX001 (ip), vehicle: saline
[3] = dose: 400.0 mg/kg/injection, schedule: Q01DX009 (ip), vehicle: Klucel (hydroxypropylcellulose) (HPC)
[4] = dose: 200.0 mg/kg/injection, schedule: Q01DX001 (ip), vehicle: other
[5] = dose: 400.0 mg/kg/injection, schedule: Q04DX003 (ip), vehicle: Klucel (hydroxypropylcellulose) (HPC)

Structure (SMILES): Cc1ccc(C(=O)OCC(=O)c2ccc(-c3ccccc3)cc2)cc1
- survivor count [1]: 6 of 6

Structure (SMILES): Nc1cc(Cl)c(S(=O)(=O)O)cc1Cl
- survivor count [2]: 2 of 4

Structure (SMILES): C1CC2CCC[N]3C2C(C1)[O][Pb]31[O]C2CCCC3CCC[N]1C32 (stereo not drawn)
- survivor count (dose: 120.0 mg/kg/injection, schedule: Q01DX015 (ip), vehicle: carboxymethylcellulose (CMC)): 5 of 6
- survivor count (dose: 240.0 mg/kg/injection, schedule: Q01DX015 (ip), vehicle: carboxymethylcellulose (CMC)): 0 of 6
- survivor count [3]: 1 of 6

Structure (SMILES): CC(=O)OC1CCC(NC(=O)N(CCF)N=O)CC1 (stereo not drawn)
- T/C (dose: 10.0 mg/kg/injection, schedule: Q01DX001 (ip), vehicle: other): 147 % of control
- survivor count (dose: 60.0 mg/kg/injection, schedule: Q01DX001 (ip), vehicle: other): 2 of 10
- survivor count (dose: 80.0 mg/kg/injection, schedule: Q01DX001 (ip), vehicle: other): 2 of 10
- survivor count (dose: 133.0 mg/kg/injection, schedule: Q01DX001 (ip), vehicle: other): 0 of 10
- survivor count [4]: 0 of 10
- survivor count (dose: 300.0 mg/kg/injection, schedule: Q01DX001 (ip), vehicle: other): 0 of 10

Structure (SMILES): CN1C(=O)CN=C(c2ccccc2)c2cc(Cl)ccc21
- survivor count [5]: 1 of 4

Structure (SMILES): CCOC(=O)c1cnc(C)[nH]c1=O
- survivor count (dose: 50.0 mg/kg/injection, schedule: Q01DX009 (ip), vehicle: saline): 6 of 6
- survivor count (dose: 200.0 mg/kg/injection, schedule: Q01DX009 (ip), vehicle: saline): 6 of 6
- survivor count [2]: 1 of 6

Structure (SMILES): CC(C)(C)N1CC(C(=O)c2ccccc2)C1c1ccc([N+](=O)[O-])cc1 (stereo not drawn)
- survivor count [5]: 0 of 6

Structure (SMILES): O=[N+]([O-])c1cc([N+](=O)[O-])c(Nn2c3ccccc3c3ccccc32)c([N+](=O)[O-])c1
- survivor count (dose: 50.0 mg/kg/injection, schedule: Q01DX009 (ip), vehicle: Klucel (hydroxypropylcellulose) (HPC)): 3 of 6
- survivor count (dose: 100.0 mg/kg/injection, schedule: Q01DX009 (ip), vehicle: Klucel (hydroxypropylcellulose) (HPC)): 0 of 6
- survivor count (dose: 200.0 mg/kg/injection, schedule: Q01DX009 (ip), vehicle: Klucel (hydroxypropylcellulose) (HPC)): 0 of 6
- survivor count [3]: 0 of 6

Structure (SMILES): C=CCSC(=S)N(C)C
- survivor count (dose: 100.0 mg/kg/injection, schedule: Q04DX002 (ip), vehicle: saline): 0 of 3
- survivor count (dose: 200.0 mg/kg/injection, schedule: Q04DX002 (ip), vehicle: saline): 0 of 3
- survivor count (dose: 400.0 mg/kg/injection, schedule: Q04DX002 (ip), vehicle: saline): 0 of 3

Structure (SMILES): CCCCCN(CCCCC)CC(O)C1c2ccccc2Cc2ccccc21 (stereo not drawn)
- survivor count (dose: 80.0 mg/kg/injection, schedule: Q01DX001 (ip), vehicle: saline): 2 of 4
- survivor count (dose: 200.0 mg/kg/injection, schedule: Q01DX001 (ip), vehicle: saline): 0 of 4
- survivor count [2]: 0 of 4

Structure (SMILES): CCOC(=O)COC(CC[P+](c1ccccc1)(c1ccccc1)c1ccccc1)(C(=O)c1ccccc1)c1ccccc1 (stereo not drawn)
- survivor count (dose: 100.0 mg/kg/injection, schedule: Q01DX001 (ip), vehicle: saline with Tween-80): 0 of 6 (2×)
- survivor count (dose: 200.0 mg/kg/injection, schedule: Q01DX001 (ip), vehicle: saline with Tween-80): 0 of 6 (2×)
- survivor count (dose: 400.0 mg/kg/injection, schedule: Q01DX001 (ip), vehicle: saline with Tween-80): 0 of 6 (2×)

Structure (SMILES): O=CNc1ccc(Br)cc1
- survivor count [3]: 1 of 6

Structure (SMILES): Cn1c(=O)c2c(nc(C3CC=CCC3)n2C)n(C)c1=O (stereo not drawn)
- survivor count (dose: 100.0 mg/kg/injection, schedule: Q01DX001 (ip), vehicle: other): 0 of 4
- survivor count [4]: 0 of 4
- survivor count [1]: 0 of 4

Structure (SMILES): NC(Cc1cccs1)C(=O)O (stereo not drawn)
- survivor count (dose: 125.0 mg/kg/injection, schedule: Q01DX Z (ip), vehicle: carboxymethylcellulose (CMC)): 9 of 10
- survivor count (dose: 500.0 mg/kg/injection, schedule: Q01DX Z (ip), vehicle: carboxymethylcellulose (CMC)): 10 of 10

Structure (SMILES): O=Cc1ccccc1B(O)O
- survivor count [5]: 3 of 6

Structure (SMILES): COc1ccc(C(=O)CBr)cc1OC
- survivor count (dose: 200.0 mg/kg/injection, schedule: Q01DX001 (ip), vehicle: carboxymethylcellulose (CMC)): 1 of 6
- survivor count (dose: 400.0 mg/kg/injection, schedule: Q01DX001 (ip), vehicle: carboxymethylcellulose (CMC)): 1 of 6

Reference: PubChem BioAssay AID248 (DTP/NCI, 2004)
